Reference: patent US20080300258A1, “ANHYDROUS CIPROFLOXACIN HYDROCHLORIDE” (priority 2007, published 2008)

Tests used:
[1] = eight weeks of storage at 40 degrees C., relative humidity 75%
[2] = background dissolution studies; cited from earlier work

Row | SMILES | single impurity after storage [1] [%] | dissolution rate, hydrated form compared with anhydrous form [2]
1 | O=C(O)c1cn(C2CC2)c2cc(N3CCNCC3)c(F)cc2c1=O [1-cyclopropyl-6-fluoro-1,4-dihydro-4-oxo-7-(1-piperazinyl)-3-quinolinecarboxylic acid] | 0.06 | –
2 | O=C(O)c1cn(C2CC2)c2cc(N3CCNCC3)c(F)cc2c1=O [hydrated form of ciprofloxacin] | – | significantly lower dissolution rate than the anhydrous form
